Measured values published in paper PMC8914340.
These are yes or no findings as the source states them, for the method shown. In cells and extracts the contact can be indirect. Some entries that bind do so weakly or less than the wild type.

By UniProt entry, the sequences of proteins in these tests, tags left out. Residues count along the entry.
UniProt P01137, residues 30-390: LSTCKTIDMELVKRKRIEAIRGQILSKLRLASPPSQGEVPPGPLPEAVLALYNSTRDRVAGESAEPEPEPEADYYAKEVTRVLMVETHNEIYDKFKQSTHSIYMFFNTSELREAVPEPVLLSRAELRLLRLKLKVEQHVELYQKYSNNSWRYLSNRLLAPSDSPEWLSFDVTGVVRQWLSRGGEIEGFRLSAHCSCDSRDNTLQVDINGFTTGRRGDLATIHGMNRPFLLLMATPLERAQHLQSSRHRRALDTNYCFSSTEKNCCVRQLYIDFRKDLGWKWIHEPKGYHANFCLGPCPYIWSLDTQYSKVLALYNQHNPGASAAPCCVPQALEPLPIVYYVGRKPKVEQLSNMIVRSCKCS
UniProt P03470: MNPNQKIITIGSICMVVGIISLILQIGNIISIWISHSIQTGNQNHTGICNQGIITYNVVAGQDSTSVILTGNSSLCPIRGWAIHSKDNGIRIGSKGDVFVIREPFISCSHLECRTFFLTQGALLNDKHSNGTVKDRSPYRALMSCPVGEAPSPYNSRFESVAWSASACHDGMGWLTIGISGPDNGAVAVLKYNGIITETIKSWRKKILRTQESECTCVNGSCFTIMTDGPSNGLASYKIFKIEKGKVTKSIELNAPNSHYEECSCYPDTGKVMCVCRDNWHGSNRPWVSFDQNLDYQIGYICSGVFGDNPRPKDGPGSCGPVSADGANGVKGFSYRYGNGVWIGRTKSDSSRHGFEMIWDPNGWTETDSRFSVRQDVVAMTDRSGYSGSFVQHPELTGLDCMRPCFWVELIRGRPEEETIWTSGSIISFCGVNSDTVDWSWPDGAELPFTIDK

Biological target: latent TGF-β (UniProt P01137)
Experiment: co-IP

Neuraminidase (NA) of influenza A virus A/WSN/1933 (H1N1) (from UniProt P03470 1-453)
binding: binds
